Article PMC3621862 (PLoS ONE, 2013)

Assay: peptide made by a vendor (peptide synthesis; Rink amide MBHA resin (0.56 mmol/g, 100–200 mesh); HBTU/NMM)
Settings: whole synthesis, scale of the general procedure 50 μmol

Substance: Chlorambucil-[ξCha][dR][ξCha][dR][ξCha][dR]-NH2 (SMILES N=C(N)NCCC[C@@H](NC(=O)C(CC1CCCCC1)NC(=O)[C@@H](CCCNC(=N)N)NC(=O)C(CC1CCCCC1)NC(=O)[C@@H](CCCNC(=N)N)NC(=O)C(CC1CCCCC1)NC(=O)CCCc1ccc(N(CCCl)CCCl)cc1)C(N)=O)
- final purity (method not given): >90%

Square brackets hold non-standard residues; d marks the D form. * marks the point of attachment. ξ: configuration not given here. Chlorambucil = O=C(CCCc1ccc(N(CCCl)CCCl)cc1)*; ξCha = NC(CC1CCCCC1)C(=O)O
